Source: publication PMC11237139
No constants are given. Whether binding was seen depends on the method and setting. In cells and extracts the contact can be indirect. Some binding calls cover weakened binding; strength is not graded here.

Amino acid sequences for entries named in this document (tags omitted). Residues count along the entry.
UniProt P36898, residues 14-502: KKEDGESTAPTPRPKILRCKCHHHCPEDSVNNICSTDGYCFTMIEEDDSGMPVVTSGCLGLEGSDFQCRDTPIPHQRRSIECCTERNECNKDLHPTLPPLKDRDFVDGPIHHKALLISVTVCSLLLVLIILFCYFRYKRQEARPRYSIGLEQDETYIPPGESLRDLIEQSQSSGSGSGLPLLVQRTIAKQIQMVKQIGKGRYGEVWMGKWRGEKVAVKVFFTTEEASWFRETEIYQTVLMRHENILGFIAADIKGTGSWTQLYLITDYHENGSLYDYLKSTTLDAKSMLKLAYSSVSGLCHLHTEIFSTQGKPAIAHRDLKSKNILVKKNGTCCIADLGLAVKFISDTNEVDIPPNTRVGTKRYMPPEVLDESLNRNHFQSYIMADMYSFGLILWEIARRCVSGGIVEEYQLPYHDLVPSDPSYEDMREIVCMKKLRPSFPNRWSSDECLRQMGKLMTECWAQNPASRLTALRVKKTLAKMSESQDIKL

Target: BMPR1B, endogenous in mouse brain (V-SVZ) (mouse (endogenous in mouse brain sections)) (UniProt P36898)
Assay: proximity ligation; Duolink in situ PLA on brain sections of 15-week-old Lrig1 WT and KO mice with anti-LRIG1 and anti-BMPR-1B antibodies; KO sections and WT sections without primary antibodies as controls

B1: LRIG1, endogenous in mouse brain (V-SVZ) (protein, UniProt P70193 35-1091)
chain: AQAGPRAPCAAACTCAGDSLDCSGRGLATLPRDLPSWTRSLNLSYNRLSEIDSAAFEDLTNLQEVYLNSNELTAIPSLGAASIGVVSLFLQHNKILSVDGSQLKSYLSLEVLDLSSNNITEIRSSCFPNGLRIRELNLASNRISILESGAFDGLSRSLLTLRLSKNRITQLPVKAFKLPRLTQLDLNRNRIRLIEGLTFQGLDSLEVLRLQRNNISRLTDGAFWGLSKMHVLHLEYNSLVEVNSGSLYGLTALHQLHLSNNSISRIQRDGWSFCQKLHELILSFNNLTRLDEESLAELSSLSILRLSHNAISHIAEGAFKGLKSLRVLDLDHNEISGTIEDTSGAFTGLDNLSKLTLFGNKIKSVAKRAFSGLESLEHLNLGENAIRSVQFDAFAKMKNLKELYISSESFLCDCQLKWLPPWLMGRMLQAFVTATCAHPESLKGQSIFSVLPDSFVCDDFPKPQIITQPETTMAVVGKDIRFTCSAASSSSSPMTFAWKKDNEVLANADMENFAHVRAQDGEVMEYTTILHLRHVTFGHEGRYQCIITNHFGSTYSHKARLTVNVLPSFTKIPHDIAIRTGTTARLECAATGHPNPQIAWQKDGGTDFPAARERRMHVMPDDDVFFITDVKIDDMGVYSCTAQNSAGSVSANATLTVLETPSLAVPLEDRVVTVGETVAFQCKATGSPTPRITWLKGGRPLSLTERHHFTPGNQLLVVQNVMIDDAGRYTCEMSNPLGTERAHSQLSILPTPGCRKDGTTVGIFTIAVVCSIVLTSLVWVCIIYQTRKKSEEYSVTNTDETIVPPDVPSYLSSQGTLSDRQETVVRTEGGHQANGHIESNGVCLRDPSLFPEVDIHSTTCRQPKLCVGYTREPWKVTEKADRTAAPHTTAHSGSAVCSDCSTDTAYHPQPVPRDSGQPGTASSQELRQHDREYSPHHPYSGTADGSHTLSGGSLYPSNHDRILPSLKNKAASADGNGDSSWTLAKLHEADCIDLKPSPTLASGSPELMEDAISTEAQHLLVSNGHLPKACDSSPESVPLKGQITGKRRGPLLLAPRS
  binding: binds
